The record followed here is paper PMC3435242.

Protein sequences, listed by entry. Tags and fused reporters are not part of them. Lines headed by an entry give the natural chain unless they say otherwise; changes in a name come on top.
UniProt Q99816: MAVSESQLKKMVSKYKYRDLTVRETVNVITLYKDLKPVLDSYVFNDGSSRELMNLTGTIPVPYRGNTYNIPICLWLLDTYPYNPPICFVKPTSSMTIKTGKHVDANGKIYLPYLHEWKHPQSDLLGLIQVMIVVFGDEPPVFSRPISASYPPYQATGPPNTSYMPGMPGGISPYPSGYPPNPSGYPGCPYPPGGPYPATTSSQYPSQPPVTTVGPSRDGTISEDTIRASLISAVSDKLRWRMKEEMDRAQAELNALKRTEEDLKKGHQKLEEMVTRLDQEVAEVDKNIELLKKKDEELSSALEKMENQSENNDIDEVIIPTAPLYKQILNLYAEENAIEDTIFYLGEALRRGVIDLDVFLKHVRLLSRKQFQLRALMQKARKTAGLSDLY
UniProt Q8WUM4: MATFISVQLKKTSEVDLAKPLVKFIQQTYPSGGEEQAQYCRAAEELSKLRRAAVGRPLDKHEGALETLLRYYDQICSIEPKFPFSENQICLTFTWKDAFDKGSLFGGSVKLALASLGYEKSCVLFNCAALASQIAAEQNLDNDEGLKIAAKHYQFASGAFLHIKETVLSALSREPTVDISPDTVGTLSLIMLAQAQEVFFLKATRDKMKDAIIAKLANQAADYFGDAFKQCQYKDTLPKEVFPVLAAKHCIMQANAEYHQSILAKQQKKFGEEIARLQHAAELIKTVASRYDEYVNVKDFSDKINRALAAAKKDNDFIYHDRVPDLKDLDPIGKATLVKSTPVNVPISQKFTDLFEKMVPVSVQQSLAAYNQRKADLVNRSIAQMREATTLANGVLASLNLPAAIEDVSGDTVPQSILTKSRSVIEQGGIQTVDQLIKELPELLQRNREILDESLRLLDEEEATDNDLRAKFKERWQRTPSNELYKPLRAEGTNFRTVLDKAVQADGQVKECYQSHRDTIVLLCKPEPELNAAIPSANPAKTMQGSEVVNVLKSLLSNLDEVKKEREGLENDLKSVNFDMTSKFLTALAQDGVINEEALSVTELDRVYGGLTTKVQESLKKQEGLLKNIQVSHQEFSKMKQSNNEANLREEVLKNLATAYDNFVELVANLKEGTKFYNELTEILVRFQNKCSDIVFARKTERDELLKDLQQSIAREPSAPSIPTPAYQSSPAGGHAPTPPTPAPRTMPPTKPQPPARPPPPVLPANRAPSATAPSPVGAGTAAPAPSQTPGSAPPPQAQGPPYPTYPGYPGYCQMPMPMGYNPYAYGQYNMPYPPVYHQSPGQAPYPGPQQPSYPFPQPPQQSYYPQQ
UniProt Q9UN37: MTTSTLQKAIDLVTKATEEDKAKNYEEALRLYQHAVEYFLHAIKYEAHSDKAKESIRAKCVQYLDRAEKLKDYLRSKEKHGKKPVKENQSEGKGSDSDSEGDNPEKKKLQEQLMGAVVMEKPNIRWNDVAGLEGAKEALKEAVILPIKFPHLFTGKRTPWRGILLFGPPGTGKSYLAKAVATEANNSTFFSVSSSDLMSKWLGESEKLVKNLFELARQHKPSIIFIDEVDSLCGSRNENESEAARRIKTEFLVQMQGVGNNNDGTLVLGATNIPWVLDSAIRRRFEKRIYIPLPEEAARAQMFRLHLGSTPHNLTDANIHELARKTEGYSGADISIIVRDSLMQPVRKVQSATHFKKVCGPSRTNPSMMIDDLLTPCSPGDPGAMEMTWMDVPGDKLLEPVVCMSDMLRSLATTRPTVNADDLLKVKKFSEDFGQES

For experiment [1], the target named is T1, GFP-Chmp4b (UniProt Q9H444).
T1 sequence: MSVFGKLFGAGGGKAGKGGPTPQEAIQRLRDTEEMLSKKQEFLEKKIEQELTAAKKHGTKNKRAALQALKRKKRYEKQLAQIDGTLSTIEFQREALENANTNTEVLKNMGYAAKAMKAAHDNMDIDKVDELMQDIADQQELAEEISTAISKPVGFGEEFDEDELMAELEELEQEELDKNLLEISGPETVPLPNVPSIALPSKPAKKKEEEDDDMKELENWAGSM
Briefly: co-IP; lysates of transfected HeLa cells in RIPA buffer, 24 h post transfection; immunoprecipitated with anti-HA, anti-GFP or anti-Alix, anti-GST as control; protein A-Sepharose, 4°C; immunoblot; for BFRF1 and Alix also with co-expressed GFP-Chmp4b and mCherry-Vps4-DN (more Alix found).

Experiment [2] has as its target HA-BFRF1d(314-336) (Epstein-Barr virus) (UniProt P03185). The description is as above.
The target in experiment [3] is T2, HA-BFRF1 (Epstein-Barr virus) (UniProt P03185).
T2 sequence: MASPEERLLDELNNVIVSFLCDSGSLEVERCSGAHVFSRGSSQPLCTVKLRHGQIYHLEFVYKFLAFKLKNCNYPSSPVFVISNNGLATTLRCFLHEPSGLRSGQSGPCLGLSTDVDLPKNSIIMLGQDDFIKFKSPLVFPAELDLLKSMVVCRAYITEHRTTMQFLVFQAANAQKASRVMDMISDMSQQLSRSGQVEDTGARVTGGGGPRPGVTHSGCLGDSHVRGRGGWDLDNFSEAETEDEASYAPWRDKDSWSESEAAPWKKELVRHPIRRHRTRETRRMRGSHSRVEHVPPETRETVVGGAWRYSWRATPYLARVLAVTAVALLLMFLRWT
The description is as above.

The target in experiment [4] is TSG101 (tumor susceptibility gene 101) (human (endogenous in HeLa or NA cells)) (UniProt Q99816). Briefly: co-IP; data not shown; immunoprecipitated with TSG101 antibody; cells co-expressing HA-BFRF1 and Flag-BFLF2, or BFRF1 alone; cell line not named.
Experiment [5] has as its target T1, GFP-Chmp4b. Briefly: co-IP; lysates of transfected HeLa cells in RIPA buffer, 24 h post transfection; immunoprecipitated with anti-HA, anti-GFP or anti-Alix, anti-GST as control; protein A-Sepharose, 4°C; immunoblot; for BFRF1 and Alix also with co-expressed GFP-Chmp4b and mCherry-Vps4-DN (more Alix found). This is another data set of the same source.
In experiment [6] the target is T2, HA-BFRF1 (Epstein-Barr virus). The description is as above. This is another data set of the same source.

Like-named read-outs stand apart in the source and are kept apart here. No constants are given. Whether binding was seen depends on the method and setting. In cells and extracts the contact can be indirect. Some binding calls cover weakened binding; strength is not graded here. For part of these data: Sequences can lack the tags named with a protein.

Regarding “Alix (apoptosis linked gene-2 interacting protein X), endogenous in HeLa (from UniProt Q8WUM4 1-868)”, the binding result is recorded as “binds weakly” with GFP-Chmp4b [1] and “binds” in experiment [2].

Turning to “Flag-Alix_Bro (from UniProt Q8WUM4 1-358) (domain or fragment)”, the binding entry in experiment [3] was “binds”.

“Flag-Alix_PRR (from UniProt Q8WUM4 717-868) (domain or fragment)”: the binding entry in experiment [3] was “binds”.

Regarding “Flag-Alix_V (from UniProt Q8WUM4 362-705) (domain or fragment)”, the binding entry in experiment [3] is listed as “no binding”.

On to “mCherry-Vps4-DN (Vps4A E228Q) (from UniProt Q9UN37 1-437) (enzyme)”, for which, in experiment [3], the binding entry is “binds”.

B1: Flag-BFLF2 (protein, UniProt P0CK47 1-318)
chain: MAPVTPDAVNARQQRPADPALRRLMHPHHRNYTASKASAHSVKSVSRCGKSRSELGRMERVGSVARSICSRHTRHGVDRSHFSLRDFFRGISANFELGKDFLREMNTPIHVSEAVFLPLSLCTLSPGRCLRLSPFGHSLTLGSHCEICINRSQVHVPQEFSSTQLSFFNNVHKIIPNKTFYVSLLSSSPSAVKAGLSQPSLLYAYLVTGHFCGTICPIFSTNGKGRLIMHLLLQGTSLHIPETCLKLLCENIGPTYELAVDLVGDAFCIKVSPRDTVYEKAVNVDEDAIYEAIKDLECGDELRLQIINYTQLILENKQ
Regarding B1, the binding result in experiment [4] is on record as “binds”.

B2: HA-BFRF1 (protein, UniProt P03185 1-336)
chain: MASPEERLLDELNNVIVSFLCDSGSLEVERCSGAHVFSRGSSQPLCTVKLRHGQIYHLEFVYKFLAFKLKNCNYPSSPVFVISNNGLATTLRCFLHEPSGLRSGQSGPCLGLSTDVDLPKNSIIMLGQDDFIKFKSPLVFPAELDLLKSMVVCRAYITEHRTTMQFLVFQAANAQKASRVMDMISDMSQQLSRSGQVEDTGARVTGGGGPRPGVTHSGCLGDSHVRGRGGWDLDNFSEAETEDEASYAPWRDKDSWSESEAAPWKKELVRHPIRRHRTRETRRMRGSHSRVEHVPPETRETVVGGAWRYSWRATPYLARVLAVTAVALLLMFLRWT
Turning to B2, the binding entry with GFP-Chmp4b [5] is given as “binds weakly”; in experiment [6], “binds”.
